According to PubChem BioAssay AID1347423 (Functional Genomics Laboratory (NCATS/FGL), 2020):
The campaign covered roughly 52,000 sequences. About 210 (0.4%) were called active.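 The calls were made as follows: active = gene whose silencing raises cell survival under the drug, median off-target-corrected z-score across its silencing RNAs 2 or more; inactive = the rest.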 This is one part of the list.

test: Resistance to Poly (ADP-Ribose) Polymerase inhibitor: Gene Identification via Genome-wide siRNA Screen; details: mouse BRCA2 R2336H ES cells, olaparib, CellTiter-Glo viability; hits give high values
How it was run: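 Genome-wide siRNA screen (3 siRNAs/gene, 20 nM) in mouse ES cells carrying hypomorphic BRCA2 R2336H; olaparib 500 nM added 48 h post-transfection, CellTiter-Glo viability 72 h later. Normalized to plate-median negative control; MAD z-scores, gene median, seed-adjusted.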

Sequence	z-score
GCCUUACCAUACCAUGGAGTT against Ltap	inactive: -1.37
GCAGCUUAGCCCAAAGAUCTT against Gstm6	inactive: -0.849
GCCAGAAGUGAAAAUCGAATT against Fkbp14	inactive: -0.39
CCAAUCAGACACCUACAAGTT against Myo1f	inactive: -0.299
GCUUGACACAAGAGAUUGATT against BC031593	inactive: -0.149
GGAAGAGUUUAUGAUCCUCTT against Esrrb	inactive: 0.472
GCAGCGAAAGGAUUGACAATT against Elovl5	inactive: 0.322
CCACUGUAAAAGAUUUGGCTT against A730045E13Rik	inactive: -0.559
CUCCUAUGGAACAUCUCCATT against Ndufs6	inactive: 1.86
CGGGUAUGUGACUGUCAGUTT against D11Moh34	inactive: -1.35
GCAAGAGCUGAGUACUCUGTT against Eraf	inactive: 3.28
GGAAAAGUUCAGAGCUUAUTT against 1190005F20Rik	inactive: -0.951
GCAACAAUUGAGCAAUUCATT against Bag1	inactive: -0.804
GGCUGGAAGAUGACCUGCATT against Tnni3k	inactive: -0.541
GGCCAGUCCAAAGACCAUCTT against Hsd3b7	inactive: 1.06
GGUUCUAUCUACCUACAGGTT against 9830123M21Rik	inactive: 0.537
GCAAGGCGCAUAAUGGGAGTT against Alox5ap	inactive: 0.0845
CCCGCUGUUUACACUAACGTT against 1200016C12Rik	inactive: 0.0243
GGGAGUCUACACAUUAUAUTT against Ceacam10	inactive: 1.01
GCCCUACCAAAGACACUAGTT against Lrch4	inactive: 0.462
GGAGGGUAAGACAAUGCACTT against Tmem17	inactive: -0.354
GGUUUUUGAUCUUUGUGUCTT against Nr2c1	inactive: 1.47
CGCAUGCUUCGGUACAUCATT against H2afy	inactive: 0.796
CCAUGACCAGGAUGGAUCATT against Hcr	inactive: -0.422
GGGCUUAUUCUGUUAAUAGTT against Mttp	inactive: 0.298
GCUUGUGGUCUUUAUCUUCTT against Olfr1490	inactive: 0.325

Sequence	z-score
GCUGAUUUAUAACAGGCGUTT against 4931440N07Rik	inactive: -0.452
GGGUUCCAUAUGAUUGCUCTT against St18	inactive: -1.26
GGCAAGGAUUUGUGUUUGCTT against C78915	inactive: 1.18
GGAAUUAAAAGAGCUGGGCTT against Sepn1	inactive: 0.443
CCCAUGGUCACUUAUAUAUTT against Jarid2	inactive: 0.363
GCCUGUGCCUUUUGAAUUCTT against 0610010K06Rik	inactive: 0.511
CCAAUUCAUGGUGUUCUUUTT against H2-Aa	inactive: 0.625
CGGCAAUGCGUUUCCUUUUTT against Lama4	inactive: 0.402
GGAACAACAAAAAUUCCAATT against Tor1b	inactive: -0.593
GGCAGAAGCCUAAAACGGUTT against Nudt2	inactive: 0.00231
CCAUACAAUAAGAGUGCUATT against Dcir2	inactive: -1.61
GGGCUUCUCUUUGCACUCUTT against Olfr1366	inactive: 0.993
GGUCAUCCGAGAUUUCACCTT against Elavl3	inactive: 0.236
GCCCUGAGUGGUUCAAUAATT against 5730437N04Rik	inactive: -1.98
GGGUAGAAGUUGAUGUCAUTT against 2310042N02Rik	inactive: 0.111
GGUCAUUCCAGCAAGGGUATT against D130079A08Rik	inactive: -0.475
GCAGUUAGGUGUCGUAUAUTT against Lrpprc	inactive: 0.273
GCCAUUACUAUGAUUAUCCTT against Itgb1	inactive: 0.473
GGAGCAUCUCUCCAGAUUGTT against Igsf9	inactive: -1.25
GGGCCACUGCCAAAUACUATT against 2510009E07Rik	inactive: -1.12
GGUACUCAUAAAACAUGAATT against Ticam2	inactive: -0.182
GGCAAAAUGUAUGGUAGAATT against Tead1	inactive: -1.39
GCUAGGAUUUCAGCAUAUATT against Adra1a	inactive: 1.62
GCGAAUAGGAUCCAGCUAUTT against Sin3b	inactive: -1.56
GCGGGAUUGGUCAUUCCACTT against Mrpl45	inactive: 0.404
GGAUAUUGAACACUUCUUGTT against D330017J20Rik	inactive: 1.25

Sequence	z-score
GCUAUUUUUGUGGGUGAUUTT against Otx2	inactive: -1.01
GGAUAAGAAACGCAGAGUUTT against Dnmt1	inactive: 0.345
GCUUCCUACCAUGAUGGUCTT against Gm414	inactive: 0.553
GGGUGCGGAAAUUCAUUAATT against BC051227	inactive: 0.578
GGGUGUUGGAAAUUAAUCUTT against Rpl31	inactive: -1.3
CCUCGAGUGGUUGGAUAAGTT against D11Wsu68e	inactive: -0.793
GGUUGGGCUGCCAAGUUUGTT against Fdx1	inactive: -0.214
GGUGAUAAAUCCAAAAAAGTT against Cpne5	inactive: 1.57
GGUAAGAGGAUCCAAGGUGTT against 2900046G09Rik	inactive: -0.327
GCAAGACACUUGAUAACUCTT against 1700022C21Rik	inactive: 0.167
CGCAGCUGAAUAUGUGAAGTT against H2-M10.5	inactive: -0.87
GGCGAUAGACGAGUAUCAGTT against 2610208M17Rik	inactive: 0.529
GGUUCUCCACAUGGUGAAUTT against Aptx	inactive: -0.407
GGUGUUGAAAGUCAUUGUGTT against Crsp8	inactive: -0.142
GGGAAGACUAUCUCGUGACTT against Aatk	inactive: -0.38
CCAUUAACACCUGUUAAUGTT against 2610209A20Rik	inactive: -0.104
GCUGAAUCACAAGUACUGGTT against BC002236	inactive: 0.441
GCCCAUUAAUGGGAUAUAATT against 2310042L06Rik	inactive: -2.76
CGCUCUCUGGAUUUAUCCATT against Agt	inactive: 1.16
GCCGUAUCGAUUCUAUUUCTT against Slc6a17	inactive: -0.739
UCUCCUUCAUUCCAUGCCUTT against Olfr438	inactive: -0.0141
GGAAUCAGUUAAAGAGAUCTT against 2700023J09Rik	inactive: 0.815
GGAAAACCAACAAAGCAAATT against Pde10a	inactive: 0.556
CCUCAAAUUAUUGUUGGCATT against B430315C20Rik	inactive: 0.141
CGAUGAAAUCAUCACUAUCTT against Cyfip1	inactive: -0.619
GCGGGACUUUAUCUCAUCCTT against AI317395	inactive: 1.45

Sequence	z-score
GGUGCAUAGCAUACCCUAGTT against Hlf	inactive: -1.23
GGAAGCAGAAUUGUAAAGATT against Bid3	active: 2.41
GGCUAAUGGUGCGUACAGATT against Cyp4a10	inactive: -0.194
CCAAUUGGGCACAUAGUCGTT against Ovgp1	inactive: -0.185
GAGCAGAGGAUUGAUGCACTT against LOC235779	inactive: -1.84
GGUGAUGGAGUACUUAUUGTT against Acadvl	inactive: -0.775
CCUGUUAAUUGAUUACCUUTT against Pla2g1br	inactive: 1.08
GGUGGUUUUCAUGUUUCCCTT against Olfr574	inactive: -0.968
GGAAAUUUUGACCAAGACCTT against Apoc1	inactive: 0.965
GCAUCACAGGCGAGUUUGUTT against Olfr11	inactive: -0.633
GGAAGGAAGUUAAUUCAUGTT against D330038O06	inactive: -0.1
GGAACUAUUACCAUUCUGUTT against Dkk3	inactive: 0.217
GGGCUGAAUAAAAGCCAGATT against 2410005H09Rik	inactive: -0.133
AUCUCAGCCUUGGUACGUGTT against 2610200G18Rik	inactive: -0.57
GGUAUUUGCCAACCAAAACTT against Trerf1	inactive: -1.45
GGAGGUCUGGAUUAACUGUTT against 5830411N06Rik	inactive: -0.058
GGAAUUCAUGAAGAAGUCATT against Pdlim7	inactive: 0.191
CGGACUCCAUAUGUUGAAUTT against AI413414	inactive: 0.68
GGCCAAAUUGCCAUCUGUUTT against Gm1631	inactive: 0.839
CCAUUGUUAGCCACAUACGTT against Acp5	inactive: 0.29
GGUCAUCAAGCAGUGCUAUTT against Ncstn	inactive: 0.741
GGACAGCCAGGACUUCUCATT against 4833421E05Rik	inactive: -1.37
GCCAAUCGUAACUUGCUAATT against Arhgap19	inactive: 0.256
GGAACUGAAAGACCAGUAGTT against Rpl37a	inactive: -2.22
GGAGUUAAAAUCACUCAUCTT against Ifi1	inactive: -0.366

Exported as comma-separated lines: entries from further up.
Sequence,z-score
GCAAGAGCUGAGUACUCUGTT against Eraf,inactive: 3.28
GGAAAAGUUCAGAGCUUAUTT against 1190005F20Rik,inactive: -0.951
GCAACAAUUGAGCAAUUCATT against Bag1,inactive: -0.804
GGCUGGAAGAUGACCUGCATT against Tnni3k,inactive: -0.541
